The values that follow come from paper PMC11199504, “New hemisynthetic derivatives of sphaeropsidin phytotoxins triggering severe endoplasmic reticulum swelling in cancer cells” (Scientific Reports, 2024).

This data set concerns 60 cancer cell line panel profile. The experiment in a line: COMPARE algorithm correlation with the NCI database. To be noted: COMPARE at the GI50 level.

For `CC1(C=CCCCc2ccc3ccc4cccc5ccc2c3c45)C=C2C(=O)C3(O)OC(=O)C4(CCCC(C)(C)C34)C2(O)CC1` (stereo not shown) [Compound 13], the “highest correlation coefficient with any database compound” value is 0.39.
